{"source": "patent US20160185820A1", "about": "“PRO[…], A GENE TRANSFER ENHANCER” (PHARIS BIOTEC GMBH, priority 2013, published 2016)", "origin": "cited, not measured here", "key": {"HIVs": {"test_system": "HIVs", "conditions": "HIVs preincubated with 1-100 μg/ml; cited from earlier work"}, "[1]": {"test_system": "human cell types (T cells, glial cells, fibroblasts, hematopoietic stem cells)", "conditions": "cited from earlier work"}}, "note": "At least one peptide structure holds a part that was inferred or is arguable (an end, a ring closure or a residue). No end group written: not given here.", "data": [{"sequence": "QCKIKQIINMWQ [protransduzin A]", "values": [{"measurement": "infection rate with reporter cells", "setting": "HIVs", "value": "increased by several powers of ten"}, {"measurement": "transduction of lentiviral and retroviral particles", "setting": "[1]", "value": "enhances the transduction of lentiviral and retroviral particles with high efficiency"}]}]}
